This is one part of the list. The calls rarely recur for the same compound in another form.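 Kinases were expressed as nanoluciferase fusions in K562 cells and luminescence was read every 4 h between 2 and 18 h as percent of control, DMSO set to 100% and a positive control to 0%. A time point counts as decreased when the signal drops significantly (2 sigma). The hit call is the authors' own, does not follow from the count of time points alone, and its rule is not shown.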
How the values were obtained:
Experiment in all cases: kinase-Nluc reporter destabilization hit call (1 = scored as downregulated) (binary); higher = compound decreases kinase abundance
Details in all cases: K562; 2-18 h
ABL1 = ABL1 (UniProt P00519)
AKT1 = AKT1 (UniProt P31749)
ALK = ALK (UniProt Q9UM73)
ARAF = ARAF (UniProt P10398)
AURKA = AURKA (UniProt O14965)
AURKB = AURKB (UniProt Q96GD4)
AURKC = AURKC (UniProt Q9UQB9)
BLK = BLK (UniProt P51451)
BMX = BMX (UniProt P51813)
BRAF = BRAF (UniProt P15056)
BRAF_V600E = test system: BRAF_V600E
BTK = BTK (UniProt Q06187)
CAMK2A = CAMK2A (UniProt Q9UQM7)
CAMK2G = CAMK2G (UniProt Q13555)
CDK10 = CDK10 (UniProt Q15131)
CDK2 = CDK2 (UniProt P24941)
CDK3 = CDK3 (UniProt Q00526)
CDK4 = CDK4 (UniProt P11802)
CDK5 = CDK5 (UniProt Q00535)
CDK6 = CDK6 (UniProt Q00534)

Sequences of proteins named here, by UniProt entry; tags and fusion partners are left off. A change or cut given only in a name is not applied to a line headed by its entry.
UniProt P31749: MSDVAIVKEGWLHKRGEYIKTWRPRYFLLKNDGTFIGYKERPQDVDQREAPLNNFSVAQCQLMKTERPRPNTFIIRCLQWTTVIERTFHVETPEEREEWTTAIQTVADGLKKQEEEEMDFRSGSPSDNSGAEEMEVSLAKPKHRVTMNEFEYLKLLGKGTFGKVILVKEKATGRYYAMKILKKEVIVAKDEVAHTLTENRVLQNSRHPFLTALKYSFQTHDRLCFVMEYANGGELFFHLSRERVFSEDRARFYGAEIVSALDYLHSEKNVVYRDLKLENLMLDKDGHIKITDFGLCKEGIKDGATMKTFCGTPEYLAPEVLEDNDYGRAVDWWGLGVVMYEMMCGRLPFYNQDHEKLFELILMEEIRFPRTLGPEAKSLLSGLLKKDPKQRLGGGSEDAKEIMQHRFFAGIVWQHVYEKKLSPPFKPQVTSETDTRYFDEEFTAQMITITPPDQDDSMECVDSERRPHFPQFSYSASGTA
UniProt Q9UM73: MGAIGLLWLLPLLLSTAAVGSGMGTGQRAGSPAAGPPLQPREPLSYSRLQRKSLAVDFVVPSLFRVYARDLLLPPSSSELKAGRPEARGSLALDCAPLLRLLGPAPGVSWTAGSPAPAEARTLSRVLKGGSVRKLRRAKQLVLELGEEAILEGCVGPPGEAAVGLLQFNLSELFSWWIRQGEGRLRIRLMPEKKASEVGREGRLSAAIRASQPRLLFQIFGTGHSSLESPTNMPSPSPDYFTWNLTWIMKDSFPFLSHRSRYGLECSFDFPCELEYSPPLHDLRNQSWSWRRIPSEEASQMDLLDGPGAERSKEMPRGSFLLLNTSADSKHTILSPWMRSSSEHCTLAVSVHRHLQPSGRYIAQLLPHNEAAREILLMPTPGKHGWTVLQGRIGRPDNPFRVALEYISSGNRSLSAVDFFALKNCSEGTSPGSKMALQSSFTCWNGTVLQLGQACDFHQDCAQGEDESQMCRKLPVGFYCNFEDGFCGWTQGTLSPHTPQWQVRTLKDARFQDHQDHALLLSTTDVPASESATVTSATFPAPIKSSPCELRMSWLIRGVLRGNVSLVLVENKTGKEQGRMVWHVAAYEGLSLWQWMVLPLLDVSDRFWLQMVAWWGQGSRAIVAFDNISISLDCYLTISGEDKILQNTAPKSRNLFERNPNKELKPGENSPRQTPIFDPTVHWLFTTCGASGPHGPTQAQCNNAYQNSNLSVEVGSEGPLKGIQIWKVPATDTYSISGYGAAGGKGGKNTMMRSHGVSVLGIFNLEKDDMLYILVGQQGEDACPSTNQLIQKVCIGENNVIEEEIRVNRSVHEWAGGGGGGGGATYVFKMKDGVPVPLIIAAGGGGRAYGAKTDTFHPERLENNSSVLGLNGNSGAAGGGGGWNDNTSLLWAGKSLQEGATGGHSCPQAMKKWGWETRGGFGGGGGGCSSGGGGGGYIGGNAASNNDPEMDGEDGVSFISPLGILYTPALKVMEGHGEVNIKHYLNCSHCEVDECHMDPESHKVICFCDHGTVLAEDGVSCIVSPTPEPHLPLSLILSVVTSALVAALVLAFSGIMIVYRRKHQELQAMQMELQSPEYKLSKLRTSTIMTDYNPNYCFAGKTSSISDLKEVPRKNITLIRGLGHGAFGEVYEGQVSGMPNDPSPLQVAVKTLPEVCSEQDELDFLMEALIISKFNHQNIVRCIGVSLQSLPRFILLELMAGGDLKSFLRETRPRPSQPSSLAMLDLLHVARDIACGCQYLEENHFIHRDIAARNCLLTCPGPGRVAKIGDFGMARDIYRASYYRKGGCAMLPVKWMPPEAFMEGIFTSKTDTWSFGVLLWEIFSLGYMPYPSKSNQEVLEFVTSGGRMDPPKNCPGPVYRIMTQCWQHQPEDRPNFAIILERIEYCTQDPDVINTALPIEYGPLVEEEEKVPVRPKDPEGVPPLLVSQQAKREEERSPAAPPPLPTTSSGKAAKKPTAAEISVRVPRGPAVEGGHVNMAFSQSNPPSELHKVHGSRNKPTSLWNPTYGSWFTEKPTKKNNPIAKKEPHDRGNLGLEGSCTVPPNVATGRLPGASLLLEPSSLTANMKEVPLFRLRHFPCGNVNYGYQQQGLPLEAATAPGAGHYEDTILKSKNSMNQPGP
UniProt P10398: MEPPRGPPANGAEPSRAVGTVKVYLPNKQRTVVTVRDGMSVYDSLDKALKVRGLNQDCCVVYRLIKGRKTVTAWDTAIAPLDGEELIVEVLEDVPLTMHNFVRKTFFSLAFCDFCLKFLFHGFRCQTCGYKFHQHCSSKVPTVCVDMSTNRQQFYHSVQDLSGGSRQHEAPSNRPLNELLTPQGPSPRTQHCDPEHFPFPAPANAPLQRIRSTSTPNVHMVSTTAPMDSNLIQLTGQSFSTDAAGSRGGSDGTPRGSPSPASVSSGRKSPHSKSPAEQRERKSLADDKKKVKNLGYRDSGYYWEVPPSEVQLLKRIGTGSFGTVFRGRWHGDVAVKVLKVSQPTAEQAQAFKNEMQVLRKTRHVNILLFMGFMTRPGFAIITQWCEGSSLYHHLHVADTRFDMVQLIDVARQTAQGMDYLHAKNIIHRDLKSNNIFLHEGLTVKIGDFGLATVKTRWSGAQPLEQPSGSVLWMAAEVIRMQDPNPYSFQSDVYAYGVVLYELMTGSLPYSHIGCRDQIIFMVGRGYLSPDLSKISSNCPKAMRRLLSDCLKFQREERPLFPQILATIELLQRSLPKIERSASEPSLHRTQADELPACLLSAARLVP
UniProt P51451: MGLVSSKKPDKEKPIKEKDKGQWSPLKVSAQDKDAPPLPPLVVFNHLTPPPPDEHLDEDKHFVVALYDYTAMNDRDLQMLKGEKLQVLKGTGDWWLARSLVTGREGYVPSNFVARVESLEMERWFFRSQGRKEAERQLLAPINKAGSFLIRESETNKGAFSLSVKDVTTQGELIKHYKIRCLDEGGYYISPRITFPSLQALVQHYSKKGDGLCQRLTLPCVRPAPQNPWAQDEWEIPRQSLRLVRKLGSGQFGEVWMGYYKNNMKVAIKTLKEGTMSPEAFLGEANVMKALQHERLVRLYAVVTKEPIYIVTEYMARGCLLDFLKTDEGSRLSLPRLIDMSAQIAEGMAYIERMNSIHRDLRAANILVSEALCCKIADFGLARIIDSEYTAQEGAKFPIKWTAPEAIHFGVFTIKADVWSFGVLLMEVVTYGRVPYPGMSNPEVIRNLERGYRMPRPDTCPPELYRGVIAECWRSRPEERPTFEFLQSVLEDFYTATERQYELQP
UniProt P51813: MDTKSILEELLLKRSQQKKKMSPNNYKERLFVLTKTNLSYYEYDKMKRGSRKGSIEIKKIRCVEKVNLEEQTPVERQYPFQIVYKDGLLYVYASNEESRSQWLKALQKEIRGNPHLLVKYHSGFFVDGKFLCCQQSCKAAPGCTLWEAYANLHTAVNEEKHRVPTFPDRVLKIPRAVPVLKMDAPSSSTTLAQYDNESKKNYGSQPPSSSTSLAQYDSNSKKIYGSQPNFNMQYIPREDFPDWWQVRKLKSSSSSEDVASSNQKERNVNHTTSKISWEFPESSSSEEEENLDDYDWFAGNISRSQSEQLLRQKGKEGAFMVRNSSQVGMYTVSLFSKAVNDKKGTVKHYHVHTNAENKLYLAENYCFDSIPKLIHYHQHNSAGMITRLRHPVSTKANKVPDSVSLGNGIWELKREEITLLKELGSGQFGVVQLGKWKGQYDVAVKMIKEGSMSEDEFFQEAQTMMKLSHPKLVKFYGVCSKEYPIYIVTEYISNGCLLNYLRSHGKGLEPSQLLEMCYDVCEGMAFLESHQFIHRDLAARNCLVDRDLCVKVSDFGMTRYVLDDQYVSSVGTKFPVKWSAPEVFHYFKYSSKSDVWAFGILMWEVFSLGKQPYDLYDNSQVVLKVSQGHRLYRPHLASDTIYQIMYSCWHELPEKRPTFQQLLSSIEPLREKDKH
UniProt P15056, whole entry, looked up: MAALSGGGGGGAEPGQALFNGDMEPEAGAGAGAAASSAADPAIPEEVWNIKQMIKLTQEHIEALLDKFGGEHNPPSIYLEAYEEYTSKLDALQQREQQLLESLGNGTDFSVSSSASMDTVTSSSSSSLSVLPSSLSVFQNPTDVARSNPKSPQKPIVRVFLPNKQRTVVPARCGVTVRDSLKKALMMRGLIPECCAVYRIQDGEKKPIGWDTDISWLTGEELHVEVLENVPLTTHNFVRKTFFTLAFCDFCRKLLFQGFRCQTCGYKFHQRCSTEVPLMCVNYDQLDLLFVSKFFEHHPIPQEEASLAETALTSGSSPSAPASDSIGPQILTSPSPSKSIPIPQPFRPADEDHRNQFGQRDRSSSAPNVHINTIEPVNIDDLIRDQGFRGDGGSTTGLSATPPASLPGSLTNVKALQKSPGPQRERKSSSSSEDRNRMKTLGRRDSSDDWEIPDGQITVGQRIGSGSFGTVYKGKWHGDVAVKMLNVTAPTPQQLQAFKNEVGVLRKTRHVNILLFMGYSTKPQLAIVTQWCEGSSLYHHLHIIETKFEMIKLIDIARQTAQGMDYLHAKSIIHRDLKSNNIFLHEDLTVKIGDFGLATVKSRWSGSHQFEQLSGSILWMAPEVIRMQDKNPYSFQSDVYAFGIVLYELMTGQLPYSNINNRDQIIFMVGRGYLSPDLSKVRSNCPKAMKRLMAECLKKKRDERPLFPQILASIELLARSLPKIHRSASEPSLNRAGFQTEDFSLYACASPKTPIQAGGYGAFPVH
UniProt Q06187: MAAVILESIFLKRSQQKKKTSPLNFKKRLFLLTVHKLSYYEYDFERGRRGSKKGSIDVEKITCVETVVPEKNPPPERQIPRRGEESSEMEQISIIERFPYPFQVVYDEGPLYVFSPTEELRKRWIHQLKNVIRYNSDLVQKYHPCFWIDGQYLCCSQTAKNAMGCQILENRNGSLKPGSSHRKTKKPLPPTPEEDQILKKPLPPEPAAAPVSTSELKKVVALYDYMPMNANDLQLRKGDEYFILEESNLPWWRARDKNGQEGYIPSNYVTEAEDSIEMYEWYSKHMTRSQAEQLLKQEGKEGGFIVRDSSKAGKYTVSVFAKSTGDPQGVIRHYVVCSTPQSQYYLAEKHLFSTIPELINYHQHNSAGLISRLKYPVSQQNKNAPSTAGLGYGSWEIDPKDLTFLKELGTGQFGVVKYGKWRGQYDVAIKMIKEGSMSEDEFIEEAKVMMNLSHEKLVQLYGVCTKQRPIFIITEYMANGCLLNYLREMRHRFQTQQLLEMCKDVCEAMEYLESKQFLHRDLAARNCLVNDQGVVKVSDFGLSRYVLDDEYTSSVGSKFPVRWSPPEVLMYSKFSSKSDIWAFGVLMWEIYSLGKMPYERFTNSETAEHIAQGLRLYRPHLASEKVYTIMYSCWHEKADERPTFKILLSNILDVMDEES
UniProt Q9UQM7, whole entry: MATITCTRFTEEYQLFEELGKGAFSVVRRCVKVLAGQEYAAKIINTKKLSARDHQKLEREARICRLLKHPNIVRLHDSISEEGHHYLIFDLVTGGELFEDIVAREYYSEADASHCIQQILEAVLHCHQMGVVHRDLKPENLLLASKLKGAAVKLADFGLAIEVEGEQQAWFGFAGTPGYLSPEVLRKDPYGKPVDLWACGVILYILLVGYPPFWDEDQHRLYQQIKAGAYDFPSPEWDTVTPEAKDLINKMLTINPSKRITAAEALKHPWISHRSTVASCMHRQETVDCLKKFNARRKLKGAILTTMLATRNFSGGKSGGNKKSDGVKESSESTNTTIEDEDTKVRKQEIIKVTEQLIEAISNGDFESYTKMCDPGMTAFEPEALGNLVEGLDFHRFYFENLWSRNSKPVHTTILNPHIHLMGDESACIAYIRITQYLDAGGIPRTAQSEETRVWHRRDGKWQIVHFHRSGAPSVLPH
UniProt Q15131: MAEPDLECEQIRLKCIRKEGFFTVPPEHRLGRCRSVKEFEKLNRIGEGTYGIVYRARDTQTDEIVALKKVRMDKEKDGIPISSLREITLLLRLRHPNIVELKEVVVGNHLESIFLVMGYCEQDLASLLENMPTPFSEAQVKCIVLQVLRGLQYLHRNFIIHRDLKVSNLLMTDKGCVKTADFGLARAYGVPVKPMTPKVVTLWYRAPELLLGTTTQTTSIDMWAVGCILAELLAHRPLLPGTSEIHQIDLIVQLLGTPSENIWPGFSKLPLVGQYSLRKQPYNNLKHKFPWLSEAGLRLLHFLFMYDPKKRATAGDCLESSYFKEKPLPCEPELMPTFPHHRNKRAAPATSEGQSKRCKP
UniProt P11802: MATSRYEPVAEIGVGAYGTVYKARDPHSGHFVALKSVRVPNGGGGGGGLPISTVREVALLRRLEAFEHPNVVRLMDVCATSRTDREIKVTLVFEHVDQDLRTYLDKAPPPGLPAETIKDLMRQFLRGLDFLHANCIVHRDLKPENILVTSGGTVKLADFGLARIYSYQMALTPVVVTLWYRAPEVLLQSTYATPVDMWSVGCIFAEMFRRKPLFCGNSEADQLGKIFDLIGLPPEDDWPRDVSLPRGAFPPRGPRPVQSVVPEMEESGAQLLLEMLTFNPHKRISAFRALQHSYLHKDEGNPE

Measured: kinase-Nluc reporter destabilization hit call

C[C@]1(O)CCN(c2nc(N3C[C@H](O)[C@@H](O)C3)cc(C(F)(F)F)c2C#N)C1 (10 µM)
inactive: ABL1 = 0 | AKT1 = 0 | ALK 0 | ARAF 0 | AURKA 0 | AURKB 0 | AURKC 0 | BLK 0 | BMX 0 | BRAF 0 | BRAF_V600E 0 | BTK 0 | CAMK2A 0 | CAMK2G 0 | CDK10 = 0 | CDK2 = 0 | CDK3 = 0 | CDK4 = 0 | CDK5 = 0 | CDK6 = 0

CC(=O)NC1CC(n2cnc(NC(=O)Cc3ccc4ccccc4c3)c2)C1 (stereo not given) (10 µM)
inactive: ABL1 = 0 | AKT1 = 0 | ALK 0 | ARAF 0 | AURKA 0 | AURKB 0 | AURKC 0 | BLK 0 | BMX 0 | BRAF 0 | BRAF_V600E 0 | BTK 0 | CAMK2A 0 | CAMK2G 0 | CDK10 = 0 | CDK2 = 0 | CDK3 = 0 | CDK4 = 0 | CDK5 = 0 | CDK6 = 0

C=CC(=O)Nc1cccc(Nc2nc(Nc3ccc(NC4CN(CCF)C4)cc3OC)ncc2C(F)(F)F)c1 (2.5 µM)
inactive: ABL1 = 0 | AKT1 = 0 | ALK 0 | ARAF 0 | AURKA 0 | AURKB 0 | AURKC 0 | BLK 0 | BMX 0 | BRAF 0 | BRAF_V600E 0 | BTK 0 | CAMK2A 0 | CAMK2G 0 | CDK10 = 0 | CDK2 = 0 | CDK3 = 0 | CDK4 = 0 | CDK5 = 0 | CDK6 = 0

Cc1cccc(Oc2cnc(=O)[nH]c2)c1 [Tolimidone] (10 µM)
inactive: ABL1 = 0 | AKT1 = 0 | ALK 0 | ARAF 0 | AURKA 0 | AURKB 0 | AURKC 0 | BLK 0 | BMX 0 | BRAF 0 | BRAF_V600E 0 | BTK 0 | CAMK2A 0 | CAMK2G 0 | CDK10 = 0 | CDK2 = 0 | CDK3 = 0 | CDK4 = 0 | CDK5 = 0 | CDK6 = 0

FC(F)(F)c1ccc(CNc2ccc(Cc3c[nH]c4ncccc34)cn2)cc1 (10 µM)
inactive: ABL1 = 0 | AKT1 = 0 | ALK 0 | ARAF 0 | AURKA 0 | AURKB 0 | AURKC 0 | BLK 0 | BMX 0 | BRAF 0 | BRAF_V600E 0 | BTK 0 | CAMK2A 0 | CAMK2G 0 | CDK10 = 0 | CDK2 = 0 | CDK3 = 0 | CDK4 = 0 | CDK5 = 0 | CDK6 = 0

COc1ccccc1-c1cc(Nc2cccc(CS(N)(=O)=O)c2)ncn1 (10 µM)
inactive: ABL1 = 0 | AKT1 = 0 | ALK 0 | ARAF 0 | AURKA 0 | AURKB 0 | AURKC 0 | BLK 0 | BMX 0 | BRAF 0 | BRAF_V600E 0 | BTK 0 | CAMK2A 0 | CAMK2G 0 | CDK10 = 0 | CDK2 = 0 | CDK3 = 0 | CDK4 = 0 | CDK5 = 0 | CDK6 = 0

COc1cccc(OC)c1C(=O)OCc1cc(O)ccc1O[C@@H]1O[C@H](CO)[C@@H](O)[C@H](O)[C@H]1O [Curculigoside] (10 µM)
inactive: ABL1 = 0 | AKT1 = 0 | ALK 0 | ARAF 0 | AURKA 0 | AURKB 0 | AURKC 0 | BLK 0 | BMX 0 | BRAF 0 | BRAF_V600E 0 | BTK 0 | CAMK2A 0 | CAMK2G 0 | CDK10 = 0 | CDK2 = 0 | CDK3 = 0 | CDK4 = 0 | CDK5 = 0 | CDK6 = 0

CCOc1ccc2cc(-c3nn(CC4CCN(C)CC4)c4ncnc(N)c34)ccc2n1 (10 µM)
inactive: ABL1 = 0 | AKT1 = 0 | ALK 0 | ARAF 0 | AURKA 0 | AURKB 0 | AURKC 0 | BLK 0 | BMX 0 | BRAF 0 | BRAF_V600E 0 | BTK 0 | CAMK2A 0 | CAMK2G 0 | CDK10 = 0 | CDK2 = 0 | CDK3 = 0 | CDK4 = 0 | CDK5 = 0 | CDK6 = 0

NS(=O)(=O)c1ccc(-n2nc(C(F)(F)F)cc2-c2ccc(Cl)cc2)cc1 (10 µM)
inactive: ABL1 = 0 | AKT1 = 0 | ALK 0 | ARAF 0 | AURKA 0 | AURKB 0 | AURKC 0 | BLK 0 | BMX 0 | BRAF 0 | BRAF_V600E 0 | BTK 0 | CAMK2A 0 | CAMK2G 0 | CDK10 = 0 | CDK2 = 0 | CDK3 = 0 | CDK4 = 0 | CDK5 = 0 | CDK6 = 0

CCN1CCC(n2cc(CNc3cc(Cl)c4ncc(C#N)c(Nc5ccc(F)c(Cl)c5)c4c3)nn2)CC1 [Cot inhibitor-2] (2.5 µM)
inactive: ABL1 = 0 | AKT1 = 0 | ALK 0 | ARAF 0 | AURKA 0 | AURKB 0 | AURKC 0 | BLK 0 | BMX 0 | BRAF 0 | BRAF_V600E 0 | BTK 0 | CAMK2A 0 | CAMK2G 0 | CDK10 = 0 | CDK2 = 0 | CDK3 = 0 | CDK4 = 0 | CDK5 = 0 | CDK6 = 0

Cn1ncc(Cl)c1-c1cc(C(=O)N[C@H](CN)Cc2ccc(F)c(F)c2)oc1Cl [Uprosertib] (10 µM)
inactive: ABL1 = 0 | AKT1 = 0 | ALK 0 | ARAF 0 | AURKA 0 | AURKB 0 | AURKC 0 | BLK 0 | BMX 0 | BRAF 0 | BRAF_V600E 0 | BTK 0 | CAMK2A 0 | CAMK2G 0 | CDK10 = 0 | CDK2 = 0 | CDK3 = 0 | CDK4 = 0 | CDK5 = 0 | CDK6 = 0

COc1cc2ncnc(Nc3ccc(Cl)cc3F)c2cc1OC (10 µM)
inactive: ABL1 = 0 | AKT1 = 0 | ALK 0 | ARAF 0 | AURKA 0 | AURKB 0 | AURKC 0 | BLK 0 | BMX 0 | BRAF 0 | BRAF_V600E 0 | BTK 0 | CAMK2A 0 | CAMK2G 0 | CDK10 = 0 | CDK2 = 0 | CDK3 = 0 | CDK4 = 0 | CDK5 = 0 | CDK6 = 0

Ordered by molar mass (descending): some entries from above
FC(F)(F)c1ccc(CNc2ccc(Cc3c[nH]c4ncccc34)cn2)cc1 (10 µM)
inactive: ABL1 = 0 | AKT1 = 0 | ALK 0 | ARAF 0 | AURKA 0 | AURKB 0 | AURKC 0 | BLK 0 | BMX 0 | BRAF 0 | BRAF_V600E 0 | BTK 0 | CAMK2A 0 | CAMK2G 0 | CDK10 = 0 | CDK2 = 0 | CDK3 = 0 | CDK4 = 0 | CDK5 = 0 | CDK6 = 0

C[C@]1(O)CCN(c2nc(N3C[C@H](O)[C@@H](O)C3)cc(C(F)(F)F)c2C#N)C1 (10 µM)
inactive: ABL1 = 0 | AKT1 = 0 | ALK 0 | ARAF 0 | AURKA 0 | AURKB 0 | AURKC 0 | BLK 0 | BMX 0 | BRAF 0 | BRAF_V600E 0 | BTK 0 | CAMK2A 0 | CAMK2G 0 | CDK10 = 0 | CDK2 = 0 | CDK3 = 0 | CDK4 = 0 | CDK5 = 0 | CDK6 = 0

COc1cc2ncnc(Nc3ccc(Cl)cc3F)c2cc1OC (10 µM)
inactive: ABL1 = 0 | AKT1 = 0 | ALK 0 | ARAF 0 | AURKA 0 | AURKB 0 | AURKC 0 | BLK 0 | BMX 0 | BRAF 0 | BRAF_V600E 0 | BTK 0 | CAMK2A 0 | CAMK2G 0 | CDK10 = 0 | CDK2 = 0 | CDK3 = 0 | CDK4 = 0 | CDK5 = 0 | CDK6 = 0

Remaining list, next part:

Cc1cc(O)c2c(c1)C(=O)c1cc(O)cc(O)c1C2=O [Emodin] (10 µM)
inactive: ABL1 = 0 | AKT1 = 0 | ALK 0 | ARAF 0 | AURKA 0 | AURKB 0 | AURKC 0 | BLK 0 | BMX 0 | BRAF 0 | BRAF_V600E 0 | BTK 0 | CAMK2A 0 | CAMK2G 0 | CDK10 = 0 | CDK2 = 0 | CDK3 = 0 | CDK4 = 0 | CDK5 = 0 | CDK6 = 0

Nc1ncnc2c1c(-c1ccc(Oc3ccccc3)cc1)nn2C1CCCC1 (2.5 µM)
inactive: ABL1 = 0 | AKT1 = 0 | ALK 0 | ARAF 0 | AURKA 0 | AURKB 0 | AURKC 0 | BLK 0 | BMX 0 | BRAF 0 | BRAF_V600E 0 | BTK 0 | CAMK2A 0 | CAMK2G 0 | CDK10 = 0 | CDK2 = 0 | CDK3 = 0 | CDK4 = 0 | CDK5 = 0 | CDK6 = 0

O=C1NC(=O)/C(=C/c2ccc3nccnc3c2)S1 (10 µM)
inactive: ABL1 = 0 | AKT1 = 0 | ALK 0 | ARAF 0 | AURKA 0 | AURKB 0 | AURKC 0 | BLK 0 | BMX 0 | BRAF 0 | BRAF_V600E 0 | BTK 0 | CAMK2A 0 | CAMK2G 0 | CDK10 = 0 | CDK2 = 0 | CDK3 = 0 | CDK4 = 0 | CDK5 = 0 | CDK6 = 0

Cn1cc(-c2cnn3c(N)c(Br)c([C@@H]4CCCNC4)nc23)cn1 (2.5 µM)
inactive: ABL1 = 0 | AKT1 = 0 | ALK 0 | ARAF 0 | AURKA 0 | AURKB 0 | AURKC 0 | BLK 0 | BMX 0 | BRAF 0 | BRAF_V600E 0 | BTK 0 | CAMK2A 0 | CAMK2G 0 | CDK10 = 0 | CDK2 = 0 | CDK3 = 0 | CDK4 = 0 | CDK5 = 0 | CDK6 = 0

Cn1cc(-c2ccc3nnc(Sc4ccc5ncccc5c4)n3n2)cn1 (10 µM)
inactive: ABL1 = 0 | AKT1 = 0 | ALK 0 | ARAF 0 | AURKA 0 | AURKB 0 | AURKC 0 | BLK 0 | BMX 0 | BRAF 0 | BRAF_V600E 0 | BTK 0 | CAMK2A 0 | CAMK2G 0 | CDK10 = 0 | CDK2 = 0 | CDK3 = 0 | CDK4 = 0 | CDK5 = 0 | CDK6 = 0

CCc1c(C(=O)NNC(=O)C(O)c2cc(F)cc(F)c2)ccc(O)c1C (stereo not given) (10 µM)
inactive: ABL1 = 0 | AKT1 = 0 | ALK 0 | ARAF 0 | AURKA 0 | AURKB 0 | AURKC 0 | BLK 0 | BMX 0 | BRAF 0 | BRAF_V600E 0 | BTK 0 | CAMK2A 0 | CAMK2G 0 | CDK10 = 0 | CDK2 = 0 | CDK3 = 0 | CDK4 = 0 | CDK5 = 0 | CDK6 = 0

Oc1ccc(Nc2nc(-c3ccc(Cl)cc3)cs2)cc1 (10 µM)
inactive: ABL1 = 0 | AKT1 = 0 | ALK 0 | ARAF 0 | AURKA 0 | AURKB 0 | AURKC 0 | BLK 0 | BMX 0 | BRAF 0 | BRAF_V600E 0 | BTK 0 | CAMK2A 0 | CAMK2G 0 | CDK10 = 0 | CDK2 = 0 | CDK3 = 0 | CDK4 = 0 | CDK5 = 0 | CDK6 = 0
